No constants are given. Whether binding was seen depends on the method and setting. In cells and extracts the contact can be indirect. A yes stands for co-enrichment or nearness to the bait. Other partners may have been found. Where a sequence is shown, tags or fusion partners need not be part of it.
The substances below were run against T1, Flag-tagged FAM83A (UniProt Q86UY5) (assay: affinity purification with mass spectrometry; Flag antibody IP from lysates of HEK293T cells transfected with Flag-FAM83A for 48 h; immunoprecipitate sent for LS-MS/MS analysis).
T1 sequence: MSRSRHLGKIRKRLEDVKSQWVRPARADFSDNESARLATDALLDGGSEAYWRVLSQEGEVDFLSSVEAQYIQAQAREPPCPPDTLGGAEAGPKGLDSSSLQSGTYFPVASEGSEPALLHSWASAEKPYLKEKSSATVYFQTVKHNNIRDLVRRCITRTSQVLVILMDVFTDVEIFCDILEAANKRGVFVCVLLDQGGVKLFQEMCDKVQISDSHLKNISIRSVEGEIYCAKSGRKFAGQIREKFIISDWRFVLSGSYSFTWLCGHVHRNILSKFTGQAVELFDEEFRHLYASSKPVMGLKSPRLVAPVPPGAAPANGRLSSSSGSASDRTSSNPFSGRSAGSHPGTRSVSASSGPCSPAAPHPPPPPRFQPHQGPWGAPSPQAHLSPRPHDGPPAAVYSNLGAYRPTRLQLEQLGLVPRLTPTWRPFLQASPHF

The chains behind the UniProt entries cited, without tags or fusion partners.
UniProt P51451: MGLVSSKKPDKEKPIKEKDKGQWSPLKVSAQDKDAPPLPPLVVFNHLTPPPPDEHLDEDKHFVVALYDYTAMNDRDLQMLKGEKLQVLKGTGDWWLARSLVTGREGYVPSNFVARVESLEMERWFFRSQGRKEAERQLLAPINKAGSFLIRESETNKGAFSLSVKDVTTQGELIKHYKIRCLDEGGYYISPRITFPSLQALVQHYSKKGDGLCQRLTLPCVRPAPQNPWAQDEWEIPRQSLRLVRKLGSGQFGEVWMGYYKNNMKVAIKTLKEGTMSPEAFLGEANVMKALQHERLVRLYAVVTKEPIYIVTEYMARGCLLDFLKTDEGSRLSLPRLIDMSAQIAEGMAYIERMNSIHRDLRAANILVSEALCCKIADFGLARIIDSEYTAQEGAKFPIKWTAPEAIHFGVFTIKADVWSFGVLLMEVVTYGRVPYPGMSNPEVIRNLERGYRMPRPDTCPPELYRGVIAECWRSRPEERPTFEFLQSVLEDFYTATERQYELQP
UniProt P06241: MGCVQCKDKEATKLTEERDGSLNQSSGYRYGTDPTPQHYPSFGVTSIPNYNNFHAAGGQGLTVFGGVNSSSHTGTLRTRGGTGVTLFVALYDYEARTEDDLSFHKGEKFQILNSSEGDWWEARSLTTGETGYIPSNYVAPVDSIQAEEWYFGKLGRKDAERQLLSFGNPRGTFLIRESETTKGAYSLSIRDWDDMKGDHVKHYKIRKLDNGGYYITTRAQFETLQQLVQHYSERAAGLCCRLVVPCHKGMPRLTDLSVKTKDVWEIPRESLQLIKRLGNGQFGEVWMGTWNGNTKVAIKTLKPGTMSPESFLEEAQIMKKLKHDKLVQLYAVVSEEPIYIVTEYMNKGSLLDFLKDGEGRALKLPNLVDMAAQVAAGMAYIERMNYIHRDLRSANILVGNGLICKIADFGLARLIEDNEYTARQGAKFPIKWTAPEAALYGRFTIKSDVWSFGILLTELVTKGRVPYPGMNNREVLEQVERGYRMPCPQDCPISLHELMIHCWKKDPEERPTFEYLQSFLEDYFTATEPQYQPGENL
UniProt P35222: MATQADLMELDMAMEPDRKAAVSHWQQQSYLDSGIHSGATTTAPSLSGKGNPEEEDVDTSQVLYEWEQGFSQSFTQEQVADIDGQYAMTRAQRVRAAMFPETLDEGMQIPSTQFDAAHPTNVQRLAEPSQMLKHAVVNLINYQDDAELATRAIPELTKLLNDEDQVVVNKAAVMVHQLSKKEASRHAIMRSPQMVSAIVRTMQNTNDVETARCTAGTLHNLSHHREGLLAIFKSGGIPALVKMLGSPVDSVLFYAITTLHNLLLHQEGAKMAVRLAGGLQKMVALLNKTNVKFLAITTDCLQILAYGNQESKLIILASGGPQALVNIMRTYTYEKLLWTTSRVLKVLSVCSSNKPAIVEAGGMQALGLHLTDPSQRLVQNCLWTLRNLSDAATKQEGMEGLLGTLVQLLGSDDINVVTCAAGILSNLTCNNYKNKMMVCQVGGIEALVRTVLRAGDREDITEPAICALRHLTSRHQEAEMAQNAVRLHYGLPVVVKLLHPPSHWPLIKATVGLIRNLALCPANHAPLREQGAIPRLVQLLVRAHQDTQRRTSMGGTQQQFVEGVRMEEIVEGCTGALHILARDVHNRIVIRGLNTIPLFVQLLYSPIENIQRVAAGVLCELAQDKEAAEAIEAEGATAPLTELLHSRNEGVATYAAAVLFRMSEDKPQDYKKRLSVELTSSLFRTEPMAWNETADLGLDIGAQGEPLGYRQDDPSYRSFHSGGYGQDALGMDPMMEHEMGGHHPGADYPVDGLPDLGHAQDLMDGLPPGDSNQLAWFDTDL

binding, binds:
BLK (found in the FAM83A immunoprecipitate) (from UniProt P51451 1-505) (enzyme)
FYN (found in the FAM83A immunoprecipitate) (from UniProt P06241 1-537) (enzyme)
endogenous β-catenin (from UniProt P35222 1-781)
